The campaign covered roughly 350,000 compounds. About 220 (0.063%) were called active. Inconclusive results, whose numbers are uncertain, are shown with a selection of clear calls. Calls come from the whole dose curve; as a rule, active = well fitted activation curve with a large enough effect; inconclusive = small, poorly fitted or top-dose-only effect; inactive = no such curve, though single readings can be large or run the other way. Where the call is inconclusive, the potency comes from a doubtful curve fit.
Experiment: qHTS for Activators of Integrin-Mediated Alleviation for Muscular Dystrophy; note: nearly all actives have a fitted effect of over 60% in size;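 for activation: 100% = response of the positive control SU9516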
Settings: alpha7betagal myoblasts, beta-gal FDG fluorescence, 48 h; activation: at 38.3 µM (top of the series)
Summary of the method: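 alpha7betagal+/- myoblasts (passage 13, 250/well) treated 48 h at 37C with compounds at 1:260 dilution of DMSO stock. Lysed, then beta-galactosidase activity read as FDG fluorescence (ex 480/em 540) after 30 min, with pre-read for autofluorescence.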
With `Cc1ccc(S(=O)(=O)N2CCOCC2)cc1NC(=O)c1cc(-c2ccccn2)nc2ccccc12` the Potency was inconclusive: 2.51 µM [activator, partial curve, poor fit]. With `Cc1cc2c(nn1)CCC/C2=N\O` the Potency was “inactive”. With `COC(=O)c1cccc(N2CCCC2=O)c1` the Potency was inconclusive: 2.82 µM [activator, single point]. For `CCn1cc(C(=O)NCCN(C)C)c(=O)c2cc(F)c(N3CCN(C)CC3)cc21`, the Potency was inconclusive: 5.01 µM [activator, single point]. For `CCc1ccccc1Nc1nc2ccccc2n1C`, the Potency was inconclusive: 5.01 µM [activator, single point]. For `Cc1cc(O)ccc1Nc1nc(-c2cccs2)cs1`, the Potency was inconclusive: 1.12 µM [activator, partial curve, poor fit]. In the case of `Cc1ccccc1OCC(=O)Nc1ccc(S(=O)(=O)N2CCOCC2)cc1`, the Potency is reported as inconclusive: 5.01 µM [activator, single point]. For `COc1ccc2[nH]c(C)c(CCNC(=S)Nc3ccccc3OC)c2c1`, the Potency was inconclusive: 5.01 µM [activator, single point]. In the case of `CC(C)Sc1nc2c([nH]1)c(=N)ncn2Cc1ccccc1`, the Potency is reported as inconclusive: 28.2 µM [activator, single point]. In the case of `O=Nc1c(O)n(Cc2ccccc2)c2ccccc12`, the Potency is reported as inconclusive: 5.62 µM [activator, partial curve, poor fit]. In the case of `CCOc1ccc2nc(NCCCNS(=O)(=O)c3ccc(F)cc3)c(C#N)cc2c1`, the Potency is reported as inconclusive: 31.6 µM [activator, single point]. In the case of `O=C(NCc1ccccc1F)c1ccc(S(=O)(=O)N2CCCCCC2)cc1`, the Potency is reported as inconclusive: 3.98 µM [activator, single point]. With `Cc1cc[n+](CC(=O)c2ccc(NC(=O)c3ccccc3)cc2)cc1` the Potency was inconclusive: 5.01 µM [activator, single point]. In the case of `COc1cccc(-c2n[nH]nc2C2=CC(=O)C[C@H](c3ccc(F)cc3)C2)c1`, the Potency is reported as “inactive”. In the case of `Cc1ccc(C(=O)OCC(=O)NC(=O)Cc2ccccc2)c(O)c1`, the Potency is reported as inconclusive: 7.08 µM [activator, partial curve, poor fit]. In the case of `CCOC1(OCC)C(c2ccc(Cl)cc2)C(C#N)(C#N)C1(OCC)OCC` (stereo not given), the Potency is reported as “inactive”. For `CC(C)C(C(=O)Nc1nccs1)c1ccccc1` (stereo not given), the Potency was “inactive”. With `C=CCOc1c(Br)cc(/C=N/NC(=O)Cc2ccc(C(F)(F)F)cc2[N+](=O)[O-])cc1OC` the Potency was “inactive”. In the case of `COc1cccc(CN(C)Cc2nc(Cc3ccccc3Cl)no2)c1`, the activation is reported as inconclusive: -39.9% [activator]. With `COC(=O)CC1COc2ccccc2N1S(=O)(=O)c1ccc(Br)cc1` (stereo not given) the Potency was “inactive”. In the case of `CC(C)CC(=O)N1CCN(Cc2cccc(Cl)c2)CC1`, the Potency is reported as inconclusive: 0.355 µM [activator, partial curve, poor fit]. With `O=C(NCC(=O)N1CCN(c2ccccc2O)CC1)c1ccco1` the Potency was inconclusive: 3.16 µM [activator, single point]. With `O=S(=O)(/C=C/c1ccccc1)NCc1ccccc1Cl` the Potency was inconclusive: 28.2 µM [activator, partial curve, poor fit]. In the case of `COCCCNC(=O)/C(C#N)=C/c1cc(C)[nH]c1C`, the Potency is reported as inconclusive: 5.01 µM [activator, single point]. For `Cc1ccc(-c2nn(-c3ccccc3)cc2/C=N/n2c(-c3cccs3)n[nH]c2=S)cc1`, the Potency was inconclusive: 1 µM [activator, full curve, poor fit]. In the case of `N#Cc1c(NC(=O)C2CC(c3ccccc3O)=NO2)sc2c1CCC2` (stereo not given), the Potency is reported as inconclusive: 28.2 µM [activator, single point]. In the case of `O=C(Nc1nc(-c2ccc(Cl)s2)cs1)c1ccco1`, the Potency is reported as inconclusive: 4.47 µM [activator, single point]. For `CC(CN1CCOCC1)(NS(=O)(=O)c1ccccc1)c1ccccc1` (stereo not given), the Potency was inconclusive: 28.2 µM [activator, single point]. For `C#CCOc1ccc(/C=C2\SC(=S)N(Cc3cccnc3)C2=O)cc1`, the Potency was “inactive”. With `O=C(Nc1cccc(Cl)c1)Nc1ccc2c(c1)OCO2` the Potency was inconclusive: 10 µM [activator, partial curve, poor fit]. For `O=C(NC(=S)N1CCN(Cc2ccccc2)CC1)c1ccco1`, the Potency was “inactive”. For `Cc1ccsc1/C=N/N=C/c1sccc1C`, the Potency was inconclusive: 28.2 µM [activator, single point]. With `Cc1nn(Cc2ccc(Cl)cc2Cl)c(C)c1NC(=O)NC12CC3CC(CC(C3)C1)C2` the Potency was “inactive”. With `CCN1C(=O)CC(N2CCN(c3ccc(C(=O)c4ccccc4)cc3)CC2)C1=O` (stereo not given) the Potency was inconclusive: 2.82 µM [activator, single point]. For `COc1c(C(=O)Nc2ccccc2N2CCOCC2)cc2ccccc2c1Br`, the Potency was “inactive”. With `CCc1ccccc1N(CC(=O)NC(C)c1ccccc1)S(C)(=O)=O` (stereo not given) the Potency was inconclusive: 2 µM [activator, partial curve, poor fit]. With `CCC(CC)COC(=O)C1=C(C)NC(=O)NC1c1ccc(N(C)C)cc1` (stereo not given) the Potency was inconclusive: 5.01 µM [activator, single point]. In the case of `COc1cccc(C(=O)N2CCN(Cc3cc(Br)ccc3OC)CC2)c1`, the Potency is reported as “inactive”. In the case of `Cc1ccc(C(=O)N/N=C/c2cc(Br)ccc2O)cn1`, the Potency is reported as inconclusive: 28.2 µM [activator, single point]. With `COC(=O)Cc1c(C)c2ccc(OCC(=O)N(C)C)cc2oc1=O` the Potency was inconclusive: 3.98 µM [activator, single point]. In the case of `CC1(C)C2CCC1(CS(=O)(=O)N1CCN(c3ccccc3F)CC1)C(=O)C2` (stereo not given), the Potency is reported as inconclusive: 1 µM [activator, single point]. With `CCCNC(=O)COC(=O)c1cc(C)nc2ccccc12` the Potency was inconclusive: 28.2 µM [activator, single point]. In the case of `CC1Sc2ccc(S(=O)(=O)N3CCC(C(=O)N(C)Cc4ccccc4)CC3)cc2NC1=O` (stereo not given), the Potency is reported as inconclusive: 5.01 µM [activator, single point]. For `O=c1c([N+](=O)[O-])cc(C(F)(F)F)cn1Cc1c(Cl)cccc1Cl`, the Potency was “inactive”. For `COc1ccc(OC)c(N2Cc3cc(C)c(C)cc3C2)c1`, the Potency was “inactive”. With `Cc1cc([N+](=O)[O-])ccc1NC(=O)Cc1ccc(F)cc1` the Potency was “inactive”. In the case of `Oc1ccc(-c2nnc(Nc3cccc(O)c3)c3ccccc23)cc1`, the Potency is reported as inconclusive: 2 µM [activator, full curve, poor fit]. In the case of `Cc1cc(C)cc(Nc2c(F)c(F)c(F)c(F)c2C(=O)O)c1`, the Potency is reported as inconclusive: 0.501 µM [activator, full curve, poor fit]. With `Cc1[nH]c2ccccc2c1/C=N/Nc1nc2ccccc2[nH]1` the Potency was inconclusive: 5.01 µM [activator, partial curve, poor fit]. With `COc1ccc(C(C)=O)cc1CSc1nc2cc(C(=O)O)ccc2c(=O)n1Cc1ccccc1` the Potency was “inactive”. In the case of `Cc1cc(C)cc(N(C(=O)c2ccccn2)C(C(=O)NC2CCCCC2)c2ccncc2)c1` (stereo not given), the Potency is reported as inconclusive: 5.01 µM [activator, single point]. In the case of `Cc1ccccc1N=Cc1c(O)n(-c2nccs2)c(=O)c2ccccc12`, the Potency is reported as “inactive”. In the case of `COCc1c(C(=O)N2CCN(c3ncccn3)CC2)oc2ccccc12`, the Potency is reported as inconclusive: 5.01 µM [activator, single point]. For `CN(C(=O)c1ccc(NC(=O)Cc2cccc([N+](=O)[O-])c2)cc1)C1CCCC1`, the Potency was “inactive”. For `O=S(=O)(NCc1cn2ccccc2n1)c1cccs1`, the Potency was inconclusive: 1.78 µM [activator, partial curve, poor fit]. In the case of `CCOC(=O)CC1C(=O)NCCN1S(=O)(=O)c1ccc(NC(C)=O)cc1` (stereo not given), the Potency is reported as inconclusive: 20 µM [activator, single point]. For `O=C(COc1ccc(F)cc1)NCCN1CCCC1`, the Potency was “inactive”. With `O=C(c1ccc(CNS(=O)(=O)c2ccc(Br)cc2)cc1)N1CCCC1` the Potency was inconclusive: 28.2 µM [activator, single point]. For `O=[N+]([O-])c1ccc2ncnc(Nc3ccc4c(c3)OCCO4)c2c1`, the Potency was inconclusive: 31.6 µM [activator, single point]. With `Cc1cc(C)c(C(N)=O)c(SCC(=O)c2cc(C)n(-c3cc(C)on3)c2C)n1` the Potency was “inactive”. In the case of `O=C(CCCCC(=O)NN=Cc1ccc(Cl)cc1)NN=Cc1ccc(Cl)cc1`, the Potency is reported as inconclusive: 1 µM [activator, full curve, poor fit]. With `CCN(CC)C(=O)C1=C(C)N(Cc2ccc(C(C)(C)C)cc2)C(=O)C(CC(=O)NCc2ccco2)C1` (stereo not given) the Potency was “inactive”. With `COC(=O)[C@H](CC(C)C)NC(=O)Nc1ccc(S(N)(=O)=O)cc1` the Potency was inconclusive: 5.01 µM [activator, single point]. With `CSc1nsc(SCC(=O)Nc2ccc(C(=O)O)cc2)n1` the Potency was inconclusive: 2.82 µM [activator, single point]. For `Cc1ccccc1OC1C(=O)N(CC2CCCO2)C1c1ccc2c(c1)OCO2` (stereo not given), the Potency was inconclusive: 28.2 µM [activator, single point]. For `CCOC(=O)NC(=O)COC(=O)c1ccc(Sc2ncn[nH]2)c([N+](=O)[O-])c1`, the Potency was inconclusive: 3.55 µM [activator, single point]. For `Cc1cc2c(NC(=O)Nc3ccccc3)cccc2nn1`, the Potency was “inactive”. For `CNC(=O)Cn1c(C)cc(=O)c2cccc(OC)c21`, the Potency was inconclusive: 12.6 µM [activator, single point]. In the case of `Cc1ccc(SCc2c(C(=O)N/N=C/c3ccc(C)o3)nnn2-c2nonc2N)cc1`, the Potency is reported as “inactive”. For `C/C(=N/NC(=O)CNC(=O)c1ccccn1)c1cccc([N+](=O)[O-])c1`, the Potency was inconclusive: 3.55 µM [activator, partial curve, poor fit].

— PubChem BioAssay AID624291 (National Center for Advancing Translational Sciences (NCATS), 2012)
Potency is the fitted concentration of half-maximal effect.
